PubChem BioAssay AID504808 – Drosophila RNAi Screening Center, 2011
Screen: 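Fly genes required to hold E2F transcription in check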 (primary screen). Cells: Drosophila S2 cells. Knock-down reagent: long dsRNA against Drosophila genes. Measurement: 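Dual luciferase plate measurements; E2F-specific signal taken as firefly over Renilla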. Direction: E2F firefly: higher = more E2F reporter activity; Renilla normaliser: higher = more normaliser reporter signal. Active means: 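Called active if the normalised E2F reporter went up by over 50%; the cutoff is arbitrary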.
In all, the deposit lists about 21,000 reagents; below is an unselected part of those that have a named target and a result. Over the whole deposit, 18 (0.084%) were called active. 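Raw counts without plate normalisation, one of two replicates; the ratio scores behind the calls were not deposited.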 A plus sign joins genes that one reagent is predicted to hit. Not stated in the record: the amount of reagent, the time to read-out.

| Gene | dsRNA | E2F firefly, rep 1 | Renilla normaliser, rep 1 | activity call |
| --- | --- | --- | --- | --- |
| CG12446 | DRSC20618 | 1.45e5 | 6400 | inactive |
| CG31300 | DRSC14657 | 1.12e5 | 5381 | inactive |
| raptor | DRSC18359 | 55278 | 3891 | inactive |
| Lk | DRSC10022 | 1.59e5 | 8012 | inactive |
| PCNA | DRSC07653 | 72455 | 3084 | inactive |
| UGP + PGRP-LF | DRSC10418 | 1.04e5 | 5198 | inactive |
| CG42258 | DRSC19741 | 67692 | 3510 | inactive |
| CG42258 | DRSC19783 | 95547 | 4123 | inactive |
| Arpc3B | DRSC20126 | 1.28e5 | 7578 | inactive |
| Mst84Db | DRSC12542 | 1.37e5 | 6738 | inactive |
| Mst84Db | DRSC12598 | 1.28e5 | 6774 | inactive |
| Ttc26 | DRSC15591 | 48943 | 3942 | inactive |
| CG13362 | DRSC17897 | 56142 | 3151 | inactive |
| Klp98A | DRSC16724 | 1.12e5 | 6151 | inactive |
| CG17260 | DRSC00497 | 88521 | 3821 | inactive |
| mthl14 | DRSC07865 | 1.28e5 | 3834 | inactive |
| Obp56e | DRSC07188 | 1.40e5 | 4730 | inactive |
| CG17493 | DRSC03798 | 97841 | 4465 | inactive |
| CG44325 | DRSC18423 | 43065 | 3307 | inactive |
| mid | DRSC02977 | 1.52e5 | 4819 | inactive |
| vers | DRSC10715 | 62466 | 3745 | inactive |
| mRpL14 | DRSC18597 | 1.16e5 | 5793 | inactive |
| ChAT | DRSC13314 | 79634 | 2125 | inactive |
| ChAT | DRSC16609 | 1.38e5 | 7848 | inactive |
| ImpE2 | DRSC08665 | 80390 | 4381 | inactive |
| CG32271 | DRSC08198 | 91349 | 3733 | inactive |
| CG12360 (retired record) | DRSC14505 | 99350 | 5492 | inactive |
| Cyp4e1 | DRSC07370 | 1.50e5 | 5143 | inactive |
| Svip | DRSC08982 | 1.27e5 | 5111 | inactive |
| ninaA | DRSC00830 | 78621 | 3809 | inactive |
| Ir51b | DRSC05540 | 1.33e5 | 5576 | inactive |
| CG31268 | DRSC13203 | 83591 | 2916 | inactive |
| CG14450 | DRSC11707 | 1.49e5 | 6981 | inactive |
| CG11857 | DRSC14411 | 1.02e5 | 6395 | inactive |
| CG6830 | DRSC16124 | 1.54e5 | 6902 | inactive |
| Cyp9b1 | DRSC07389 | 1.37e5 | 4434 | inactive |
| ASPP | DRSC04305 | 75472 | 3841 | inactive |
| CBP | DRSC17746 | 8042 | 684 | inactive |
| CG43689 | DRSC18383 | 62765 | 3616 | inactive |
| ssp7 | DRSC18878 | 83386 | 2886 | inactive |
| CG5386 | DRSC15788 | 1.10e5 | 5851 | inactive |
| MME1 | DRSC02714 | 1.01e5 | 3727 | inactive |
| MED4 | DRSC11014 | 50530 | 3139 | inactive |
| Upf3 | DRSC04092 | 82049 | 3516 | inactive |
| CG17118 | DRSC02579 | 1.32e5 | 4863 | inactive |
| CG33771 | DRSC11718 | 42648 | 3985 | inactive |
| CG11638 | DRSC18167 | 1.23e5 | 6910 | inactive |
| CG11638 | DRSC18640 | 1.23e5 | 6340 | inactive |
| CG13334 | DRSC06369 | 1.03e5 | 4253 | inactive |
| CG8541 | DRSC10989 | 96061 | 4479 | inactive |
| CG33722 + CG18749 | DRSC12674 | 76600 | 3590 | inactive |
| CG33722 + CG18749 | DRSC15386 | 1.41e5 | 7665 | inactive |
| Surf6 | DRSC15588 | 64398 | 2971 | inactive |
| RhoGEF2 | DRSC07531 | 63223 | 3185 | inactive |
| Or88a | DRSC16770 | 1.08e5 | 5915 | inactive |
| DnaJ-H | DRSC03273 | 1.04e5 | 4486 | inactive |
| elm | DRSC12309 | 60150 | 3147 | inactive |
| Hcs | DRSC12070 | 80442 | 4180 | inactive |
| Hcs | DRSC12256 | 1.40e5 | 6314 | inactive |
| CG18731 | DRSC15377 | 1.40e5 | 6891 | inactive |
| mth | DRSC08725 | 78027 | 3564 | inactive |
| CecA1 | DRSC16603 | 1.33e5 | 7116 | inactive |
| CR32745 | DRSC17442 | 71360 | 2688 | inactive |
| CR40354 | DRSC20923 | 77332 | 2777 | inactive |
| l(3)L1231 | DRSC16323 | 65594 | 3653 | inactive |
| DCTN5-p25 | DRSC03525 | 99576 | 4751 | inactive |
| CG10222 | DRSC09714 | 1.20e5 | 6509 | inactive |
| CG12448 | DRSC01967 | 98055 | 4574 | inactive |
| CG32733 (retired record) + CG32797 | DRSC17705 | 81819 | 2730 | inactive |
| Tcs6 + PIG-P | DRSC13742 | 85882 | 2547 | inactive |
| Tcs6 + PIG-P | DRSC14893 | 1.04e5 | 5794 | inactive |
| cnc | DRSC14676 | 1.20e5 | 6888 | inactive |
| cnc | DRSC15289 | 63310 | 3810 | inactive |
| cnc | DRSC15600 | 99672 | 6800 | inactive |
| cnc | DRSC15601 | 1.08e5 | 8018 | inactive |
| glec | DRSC16958 | 1.57e5 | 6752 | inactive |
| Obp99a | DRSC15303 | 1.08e5 | 6595 | inactive |
| RpL10Ab | DRSC10798 | 56603 | 6180 | inactive |
| Pde1c | DRSC02421 | 1.46e5 | 5170 | inactive |
| Pde1c | DRSC02422 | 1.44e5 | 4641 | inactive |
| Pde1c | DRSC02423 | 1.50e5 | 4649 | inactive |
| Pde1c | DRSC02424 | 1.65e5 | 5152 | inactive |
| Pde1c | DRSC02425 | 85011 | 3982 | inactive |
| Pde1c | DRSC02426 | 82279 | 3748 | inactive |
| wtrw | DRSC14241 | 77180 | 3825 | inactive |
| wtrw | DRSC15278 | 1.27e5 | 6721 | inactive |
| CG11703 | DRSC14356 | 69228 | 3516 | inactive |
| IPIP | DRSC02164 | 95949 | 4008 | inactive |
| NijB | DRSC09850 | 52780 | 3209 | inactive |
| Lgr1 | DRSC16675 | 1.38e5 | 9097 | inactive |
| CG30423 | DRSC04013 | 1.27e5 | 5554 | inactive |
| Ulp1 | DRSC19339 | 1.52e5 | 5322 | inactive |
| eag | DRSC19067 | 85237 | 3089 | inactive |
| eag | DRSC20328 | 2.47e5 | 7252 | inactive |
| CG14636 | DRSC12223 | 1.36e5 | 7273 | inactive |
| mat | DRSC08376 | 87254 | 3996 | inactive |
| CG11858 | DRSC14412 | 1.01e5 | 6456 | inactive |
| Caf1-105 | DRSC06209 | 1.39e5 | 4999 | inactive |
| Cpr67Fb | DRSC10314 | 1.12e5 | 5948 | inactive |
| grk | DRSC03540 | 78029 | 3329 | inactive |
| CG31089 | DRSC15934 | 1.13e5 | 6103 | inactive |
| CG3808 | DRSC10377 | 1.22e5 | 6165 | inactive |
| glob1 | DRSC16959 | 78546 | 3735 | inactive |
| GluClalpha | DRSC16680 | 1.38e5 | 7330 | inactive |
| yellow-b | DRSC03639 | 83791 | 4046 | inactive |
| CG1513 | DRSC05194 | 1.31e5 | 4960 | inactive |
| CG1513 | DRSC06553 | 56261 | 3595 | inactive |
| CG1513 | DRSC06554 | 1.50e5 | 4919 | inactive |

A portion taken from the entries so far, for reference:
| Gene | dsRNA | E2F firefly, rep 1 | Renilla normaliser, rep 1 | activity call |
| --- | --- | --- | --- | --- |
| Arpc3B | DRSC20126 | 1.28e5 | 7578 | inactive |
| Mst84Db | DRSC12542 | 1.37e5 | 6738 | inactive |
| Mst84Db | DRSC12598 | 1.28e5 | 6774 | inactive |
| Ttc26 | DRSC15591 | 48943 | 3942 | inactive |
| CG13362 | DRSC17897 | 56142 | 3151 | inactive |
| Klp98A | DRSC16724 | 1.12e5 | 6151 | inactive |
| CG17260 | DRSC00497 | 88521 | 3821 | inactive |
| mthl14 | DRSC07865 | 1.28e5 | 3834 | inactive |
